The experiment has as its target recombinant apple allergen Mal d 1 without polyhistidine-tag (apple (Malus domestica)) (UniProt Q9SYW3). Nature of the experiment: SDS-PAGE after reduction with DTT; 10 mM dithiothreitol added to the stored sample 10 min before denaturation; both purified.

These are yes or no findings as the source states them, for the method shown. Tags and fused reporters may be left off the sequences shown.

B1: recombinant apple allergen Mal d 1 without polyhistidine-tag (natural protein, apple (Malus domestica), UniProt Q9SYW3 1-159, looked up)
chain: MGVYTFENEFTSEIPPSRLFKAFVLDADNLIPKIAPQAIKQAEILEGNGGPGTIKKITFGEGSQYGYVKHRIDSIDEASYSYSYTLIEGDALTDTIEKISYETKLVACGSGSTIKSISHYHTKGNIEIKEEHVKAGKEKAHGLFKLIESYLKDHPDAYN
notes: n = 159 residues used for the CD calculation; pET-28b(+) vector, NcoI/XhoI, insert 485 bp; also called r-Mal d 1; source: E. coli BL21 star (DE3)pLysS, purified (anion-exchange chromatography, TOYOPEARL SuperQ-650S or GigaCap Q-650M)
B1: the binding entry is “no binding (condition: with 10 mM DTT)”.

Values taken from publication PMC7838873, “Purification and Characterization of Recombinant Expressed Apple Allergen Mal d 1” (Methods and Protocols, 2020).
